PubChem BioAssay (NCATS)
The list shows a part of the results. These are further read-outs of the screen, such as a control signal, another cell line or another target. No call is given for them. Most of these compounds were active or inconclusive in the main read-out, so they are no random draw. Potencies come from curve fits of mixed quality, noted in brackets.

Experiment: qHTS for identification of novel therapeutic agents for treatment of microphthalmiaassociated transcription factor (MiT) renal cell carcinoma (RCC) (AID 1963991)
Settings: TFE3-RCC viability, CellTiter-Glo, 48 h; measured here: UOK145 Z-AUC; stronger effect = lower value
Outline: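 Curves over 11 concentrations were fitted to CellTiter-Glo luminescence, scaled between empty wells (0%) and DMSO (100%) viability. Cells were UOK109, UOK124 and UOK145 TFE3-fusion RCC lines at 500/well, exposed 48 hours at 37 C.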
Molecule `O[C@@H](COc1cccc2ncccc12)CN1CCN(C2c3ccccc3[C@@H]3[C@H](c4ccccc42)C3(F)F)CC1` (some centres not stated) has a z-score of -0.195. With `Cc1c(C(=O)NN2CCCCC2)nn(-c2ccc(Cl)cc2Cl)c1-c1ccc(Cl)cc1` the z-score was 0.325. `Cc1cc2c(C(C)C)c(O)c(O)c(C=O)c2c(O)c1-c1c(C)cc2c(C(C)C)c(O)c(O)c(C=O)c2c1O` gave a z-score of -0.12. Work on `COC(=O)Nc1nc2ccc(S(=O)c3ccccc3)cc2[nH]1` (configuration not stated) yielded a z-score of -3.41. `CN(C)C(=O)C(CCN1CCC(O)(c2ccc(Cl)cc2)CC1)(c1ccccc1)c1ccccc1` showed a z-score of 0.0704. `Clc1ccc(C(Cn2ccnc2)OCc2ccc(Sc3ccccc3)cc2)c(Cl)c1` (configuration not stated) gave a z-score of 2.82. `Clc1ccc(C(Cn2ccnc2)OCc2c(Cl)cccc2Cl)c(Cl)c1` (configuration not stated) gave a z-score of 0.907. In the case of `O=C(c1ccc(OCCN2CCCCC2)cc1)c1c(-c2ccc(O)cc2)sc2cc(O)ccc12`, the z-score is reported as -0.00934. For `Cc1ccc(Nc2nccc(N(C)c3ccc4c(C)n(C)nc4c3)n2)cc1S(N)(=O)=O`, the z-score was 0.561. In the case of `NC1(c2ccc(-c3nc4ccn5c(=O)[nH]nc5c4cc3-c3ccccc3)cc2)CCC1`, the z-score is reported as 0.147. In the case of `OCCN1CCN(CCCN2c3ccccc3Sc3ccc(C(F)(F)F)cc32)CC1`, the z-score is reported as -0.125. In the case of `Cc1nc(Nc2ncc(C(=O)Nc3c(C)cccc3Cl)s2)cc(N2CCN(CCO)CC2)n1`, the z-score is reported as -2.81. For `CC(=O)Oc1ccccc1C(=O)Nc1ncc([N+](=O)[O-])s1`, the z-score was 1.39. With `CCCS(=O)c1ccc2nc(NC(=O)OC)[nH]c2c1` (configuration not stated) the z-score was 0.693. Molecule `CCCCc1oc2ccc(NS(C)(=O)=O)cc2c1C(=O)c1ccc(OCCCN(CCCC)CCCC)cc1` has a z-score of 1.59. For `C1CCC(C(CC2CCCCN2)C2CCCCC2)CC1` (configuration not stated), the z-score was -0.269. Work on `O=C(O)c1ccc(-n2nc(-c3ccccc3O)nc2-c2ccccc2O)cc1` yielded a z-score of 1.14.

Same assay, conditions: TFE3-RCC viability, CellTiter-Glo, 48 h; measured here: UOK145 cell viability
With `Cc1c(C(=O)NN2CCCCC2)nn(-c2ccc(Cl)cc2Cl)c1-c1ccc(Cl)cc1` the AC50 was 23.5 µM [falling, partial curve]. With `Cc1cc2c(C(C)C)c(O)c(O)c(C=O)c2c(O)c1-c1c(C)cc2c(C(C)C)c(O)c(O)c(C=O)c2c1O` the AC50 was 29.6 µM [falling, single point]. With `COC(=O)Nc1nc2ccc(S(=O)c3ccccc3)cc2[nH]1` (configuration not stated) the AC50 was 9.35 µM [falling, partial curve, poor fit]. For `CN(C)C(=O)C(CCN1CCC(O)(c2ccc(Cl)cc2)CC1)(c1ccccc1)c1ccccc1`, the AC50 was 23.5 µM [falling, partial curve]. With `Clc1ccc(C(Cn2ccnc2)OCc2ccc(Sc3ccccc3)cc2)c(Cl)c1` (configuration not stated) the AC50 was 26.4 µM [falling, single point]. With `O=C(c1ccc(OCCN2CCCCC2)cc1)c1c(-c2ccc(O)cc2)sc2cc(O)ccc12` the AC50 was 14.8 µM [falling, partial curve]. For `Cc1ccc(Nc2nccc(N(C)c3ccc4c(C)n(C)nc4c3)n2)cc1S(N)(=O)=O`, the AC50 was 23.5 µM [falling, single point]. With `NC1(c2ccc(-c3nc4ccn5c(=O)[nH]nc5c4cc3-c3ccccc3)cc2)CCC1` the AC50 was 16.6 µM [falling, partial curve]. With `OCCN1CCN(CCCN2c3ccccc3Sc3ccc(C(F)(F)F)cc32)CC1` the AC50 was 29.6 µM [falling, single point]. For `Cc1nc(Nc2ncc(C(=O)Nc3c(C)cccc3Cl)s2)cc(N2CCN(CCO)CC2)n1`, the AC50 was 0.0132 µM [falling, full curve]. With `CC(=O)Oc1ccccc1C(=O)Nc1ncc([N+](=O)[O-])s1` the AC50 was 38.2 µM [falling, partial curve]. In the case of `CCCS(=O)c1ccc2nc(NC(=O)OC)[nH]c2c1` (configuration not stated), the AC50 is reported as 20.9 µM [falling, partial curve]. With `CCCCc1oc2ccc(NS(C)(=O)=O)cc2c1C(=O)c1ccc(OCCCN(CCCC)CCCC)cc1` the AC50 was 33.2 µM [falling, single point]. With `C1CCC(C(CC2CCCCN2)C2CCCCC2)CC1` (configuration not stated) the AC50 was 23.5 µM [falling, partial curve]. In the case of `O=C(O)c1ccc(-n2nc(-c3ccccc3O)nc2-c2ccccc2O)cc1`, the AC50 is reported as 26.4 µM [falling, single point].
